Data as given in PubChem BioAssay AID652243 (Drosophila RNAi Screening Center, 2013).

Screen: 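Knock-downs that decrease or increase androgen receptor reporter signal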 (primary screen)
System: Drosophila S2R+ cells
Reagent: long dsRNA against Drosophila genes
Time to read-out: 72 h (48 h, then 24 h hormone)
Treatment: synthetic androgen R1881 at 10 nM for 24 h
Measured: 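Per-well raw luminescence of the androgen-driven firefly reporter and of the Renilla control, two replicates each, without normalisation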
Scale: firefly reporter light: higher = more light from androgen-responsive reporter; Renilla control light: higher = more constitutive control signal (cell number, transfection)
Hit rule: 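Across duplicate plates, a knock-down whose log firefly/Renilla ratio shifted a set fold down or up from the GFP/LacZ control mean was a hit; the downward cut appears as both 1.5 and 3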
Calls: active = hit: reporter lowered or raised; inactive = no hit
In all, the deposit lists about 24,000 reagents; below is a random part of those with a known target gene and a result. Of all reagents, 246 (1%) were called active. 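Plates not normalised; calls are printed but the firefly/Renilla ratio behind them is not deposited; fold cut for lowering reported inconsistently.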 Raw values vary from plate to plate and are shown uncorrected. The numbers tell different reagents against one gene apart. A plus sign joins genes that one reagent is predicted to hit. Not given: the amount of reagent.

Silencing of Lamtor2 + CG30120 #1 gave: firefly reporter light, replicate 1 = 1.21e5; firefly reporter light, replicate 2 = 1.39e5; Renilla control light, replicate 1 = 2.34e5; Renilla control light, replicate 2 = 2.61e5; inactive.
Silencing of Lamtor2 + CG30120 #2 gave: firefly reporter light, replicate 1 = 1.65e5; firefly reporter light, replicate 2 = 1.41e5; Renilla control light, replicate 1 = 2.27e6; Renilla control light, replicate 2 = 1.62e6; inactive.
For MFS17, the entry reads firefly reporter light, replicate 1 = 1.05e6; firefly reporter light, replicate 2 = 9.33e5; Renilla control light, replicate 1 = 2.60e6; Renilla control light, replicate 2 = 2.89e6; inactive.
For Irk3, the values are firefly reporter light, replicate 1 = 1.13e5; firefly reporter light, replicate 2 = 1.74e5; Renilla control light, replicate 1 = 1.20e6; Renilla control light, replicate 2 = 1.14e6; inactive.
With knock-down of Rh6 #1, the screen gave firefly reporter light, replicate 1 = 96022; firefly reporter light, replicate 2 = 1.26e5; Renilla control light, replicate 1 = 1.82e6; Renilla control light, replicate 2 = 1.40e6; inactive.
Depletion of Rh6 #2 gave: firefly reporter light, replicate 1 = 3.13e5; firefly reporter light, replicate 2 = 1.95e5; Renilla control light, replicate 1 = 8.13e5; Renilla control light, replicate 2 = 4.87e5; inactive.
Silencing of Ugt303B2 #1 gave: firefly reporter light, replicate 1 = 1.81e5; firefly reporter light, replicate 2 = 2.30e5; Renilla control light, replicate 1 = 2.83e6; Renilla control light, replicate 2 = 3.19e6; inactive.
Knock-down of Ugt303B2 #2 resulted in: firefly reporter light, replicate 1 = 3.97e5; firefly reporter light, replicate 2 = 8.62e5; Renilla control light, replicate 1 = 1.20e6; Renilla control light, replicate 2 = 2.04e6; inactive.
With knock-down of CG42540 #1, the screen gave firefly reporter light, replicate 1 = 73663; firefly reporter light, replicate 2 = 63509; Renilla control light, replicate 1 = 1.23e6; Renilla control light, replicate 2 = 1.64e6; inactive.
Depletion of CG42540 #2 came out at: firefly reporter light, replicate 1 = 6.46e5; firefly reporter light, replicate 2 = 8.67e5; Renilla control light, replicate 1 = 2.04e6; Renilla control light, replicate 2 = 2.23e6; inactive.
With knock-down of CG42540 #3, the screen gave firefly reporter light, replicate 1 = 5.14e5; firefly reporter light, replicate 2 = 5.99e5; Renilla control light, replicate 1 = 9.37e5; Renilla control light, replicate 2 = 8.45e5; inactive.
For CG42540 #4, the entry reads firefly reporter light, replicate 1 = 5.93e5; firefly reporter light, replicate 2 = 3.38e5; Renilla control light, replicate 1 = 1.42e6; Renilla control light, replicate 2 = 1.01e6; inactive.
After knock-down of CG6688 #1, the record shows firefly reporter light, replicate 1 = 2.01e5; firefly reporter light, replicate 2 = 1.84e5; Renilla control light, replicate 1 = 2.56e6; Renilla control light, replicate 2 = 2.82e6; inactive.
Knock-down of CG6688 #2 gave: firefly reporter light, replicate 1 = 7.76e5; firefly reporter light, replicate 2 = 8.69e5; Renilla control light, replicate 1 = 1.31e6; Renilla control light, replicate 2 = 1.27e6; inactive.
For Wwox #1 the deposit lists firefly reporter light, replicate 1 = 6.18e5; firefly reporter light, replicate 2 = 7.28e5; Renilla control light, replicate 1 = 1.45e6; Renilla control light, replicate 2 = 2.09e6; inactive.
Wwox #2 gave firefly reporter light, replicate 1 = 3.58e5; firefly reporter light, replicate 2 = 7.44e5; Renilla control light, replicate 1 = 8.12e5; Renilla control light, replicate 2 = 1.89e6; inactive.
With knock-down of Wwox #3, the record shows firefly reporter light, replicate 1 = 2.24e5; firefly reporter light, replicate 2 = 2.69e5; Renilla control light, replicate 1 = 6.23e5; Renilla control light, replicate 2 = 7.07e5; inactive.
Knock-down of CG11839 resulted in: firefly reporter light, replicate 1 = 2.16e5; firefly reporter light, replicate 2 = 2.41e5; Renilla control light, replicate 1 = 2.29e6; Renilla control light, replicate 2 = 2.31e6; inactive.

2 entries from above, reformatted:
gene,dsRNA no.,"firefly reporter light, replicate 1","firefly reporter light, replicate 2","Renilla control light, replicate 1","Renilla control light, replicate 2",call
Wwox,1,6.18e5,7.28e5,1.45e6,2.09e6,inactive
Wwox,2,3.58e5,7.44e5,8.12e5,1.89e6,inactive

The listing continues.
With knock-down of sl #1, the screen gave firefly reporter light, replicate 1 = 73553; firefly reporter light, replicate 2 = 73806; Renilla control light, replicate 1 = 4.63e5; Renilla control light, replicate 2 = 5.66e5; inactive.
Knock-down of sl #2 gave: firefly reporter light, replicate 1 = 3.16e5; firefly reporter light, replicate 2 = 3.56e5; Renilla control light, replicate 1 = 1.27e6; Renilla control light, replicate 2 = 2.03e6; inactive.
CG7298 gave firefly reporter light, replicate 1 = 28238; firefly reporter light, replicate 2 = 26707; Renilla control light, replicate 1 = 3.23e5; Renilla control light, replicate 2 = 3.06e5; inactive.
mRpS24 showed firefly reporter light, replicate 1 = 6.29e5; firefly reporter light, replicate 2 = 5.12e5; Renilla control light, replicate 1 = 1.14e6; Renilla control light, replicate 2 = 1.17e6; inactive.
Depletion of ItgaPS5 #1 gave: firefly reporter light, replicate 1 = 4.53e5; firefly reporter light, replicate 2 = 3.45e5; Renilla control light, replicate 1 = 2.34e6; Renilla control light, replicate 2 = 1.85e6; inactive.
Against ItgaPS5 #2 the deposit lists firefly reporter light, replicate 1 = 5.31e5; firefly reporter light, replicate 2 = 5.26e5; Renilla control light, replicate 1 = 1.36e6; Renilla control light, replicate 2 = 1.41e6; inactive.
With knock-down of CG42818 the results were firefly reporter light, replicate 1 = 1.86e5; firefly reporter light, replicate 2 = 1.40e5; Renilla control light, replicate 1 = 2.64e6; Renilla control light, replicate 2 = 2.05e6; inactive.
Against CG32832, the values are firefly reporter light, replicate 1 = 1.64e5; firefly reporter light, replicate 2 = 1.98e5; Renilla control light, replicate 1 = 5.31e5; Renilla control light, replicate 2 = 6.19e5; inactive.
CG5693 scored firefly reporter light, replicate 1 = 1.93e5; firefly reporter light, replicate 2 = 1.66e5; Renilla control light, replicate 1 = 1.87e6; Renilla control light, replicate 2 = 1.86e6; inactive.
